Reference: US20050089926A1, “Ligand sensing fluorescent acetylcholinesterase for detection of organophosphate activity” (priority 2002, published 2005)
Substitutions are numbered along the chain they refer to. In names and notes the source's numbering stands. Where two headings read alike, the source gives them in different places.

B1: E84C (protein, UniProt P21836 32-614, looked up, variant E84C)
Acetylcholinesterase: EGREDPQLLVRVRGGQLRGIRLKAPGGPVSAFLGIPFAEPPVGSRRFMPPEPKRPWSGVLDATTFQNVCYQYVDTLYPGFEGTCMWNPNRELSEDCLYLNVWTPYPRPASPTPVLIWIYGGGFYSGAASLDVYDGRFLAQVEGAVLVSMNYRVGTFGFLALPGSREAPGNVGLLDQRLALQWVQENIAAFGGDPMSVTLFGESAGAASVGMHILSLPSRSLFHRAVLQSGTPNGPWATVSAGEARRRATLLARLVGCPPGGAGGNDTELIACLRTRPAQDLVDHEWHVLPQESIFRFSFVPVVDGDFLSDTPEALINTGDFQDLQVLVGVVKDEGSYFLVYGVPGFSKDNESLISRAQFLAGVRIGVPQASDLAAEAVVLHYTDWLHPEDPTHLRDAMSAVVGDHNVVCPVAQLAGRLAAQGARVYAYIFEHRASTLTWPLWMGVPHGYEIEFIFGLPLDPSLNYTTEERIFAQRLMKYWTNFARTGDPNDPRDSKSPQWPPYTTAAQQYVSLNLKPLEVRRGLRAQTCAFWNRFLPKLLSATDTLDEAERQWKAEFHRWSSYMVHWKNQFDHYSKQERCSDL
B2: acrylodan-L76C (protein, UniProt P21836 32-614, looked up, variant L76C)
Acetylcholinesterase: B1 Acetylcholinesterase with L76C, C84E
modifications: acrylodan label
B3: H287C (protein, UniProt P21836 32-614, looked up, variant H287C)
Acetylcholinesterase: B1 Acetylcholinesterase with C84E, H287C
B4: A262C (protein, UniProt P21836 32-614, looked up, variant A262C)
Acetylcholinesterase: B1 Acetylcholinesterase with C84E, A262C

How the values were obtained:
[1] = test system: mouse AChE mutants labeled with acrylodan; assay: Acrylodan fluorescence emission, unliganded enzyme; details: acrylodan-labeled mutant
[2] = test system: mouse AChE mutants labeled with acrylodan; details: for Acrylodan Emission Maxima, Conjugated TFK^0: acrylodan-labeled mutant; for Chromic Shift / Relative Quantum Yield: conjugated TFK^0
[3] = test system: mouse AChE mutants labeled with acrylodan; assay: Acrylodan fluorescence emission with conjugated TFK+; details: for Acrylodan Emission Maxima, Conjugated TFK+: acrylodan-labeled mutant; for Chromic Shift / Relative Quantum Yield: conjugated TFK+
[4] = test system: mouse AChE mutants labeled with acrylodan; assay: Acrylodan fluorescence emission with conjugated DDVP; details: for Acrylodan Emission Maxima, Conjugated DDVP: acrylodan-labeled mutant; for Chromic Shift / Relative Quantum Yield: conjugated DDVP
[5] = test system: acrylodan-labeled mouse AChE mutants; assay: Acrylodan fluorescence emission with saturating edrophonium; details: for Acrylodan Emission Maxima, Saturating Edrophonium: acrylodan-labeled mutant; for Chromic Shift / Relative Quantum Yield: saturating edrophonium
[6] = test system: acrylodan-labeled mouse AChE mutants; assay: Acrylodan fluorescence emission with saturating huperzine A; details: for Acrylodan Emission Maxima, Saturating Huperzine A: acrylodan-labeled mutant; for Chromic Shift / Relative Quantum Yield: saturating huperzine A
[7] = test system: acrylodan-labeled mouse AChE mutants; assay: Acrylodan fluorescence emission with saturating tacrine; details: for Acrylodan Emission Maxima, Saturating Tacrine: acrylodan-labeled mutant; for Chromic Shift / Relative Quantum Yield: saturating tacrine
[8] = test system: acrylodan-labeled mouse AChE mutants; assay: Acrylodan fluorescence emission with saturating BW284c51; details: for Acrylodan Emission Maxima, Saturating BW284c51: acrylodan-labeled mutant; for Chromic Shift / Relative Quantum Yield: saturating BW284c51
[9] = test system: acrylodan-labeled mouse AChE mutants; assay: Acrylodan fluorescence emission with saturating decamethonium; details: for Acrylodan Emission Maxima, Saturating Decamethonium: acrylodan-labeled mutant; for Chromic Shift / Relative Quantum Yield: saturating decamethonium
[10] = test system: acrylodan-labeled mouse AChE mutants; details: edrophonium, tacrine or huperzine bound
[11] = test system: mouse AChE mutants labeled with acrylodan; details: acrylodan-labeled mutant, unliganded; data from Boyd et al. 2000; cited from earlier work
[12] = test system: mouse AChE mutants labeled with acrylodan; details: saturating fasciculin; data from Boyd et al. 2000; cited from earlier work

Row | Molecule | Acrylodan Emission Maxima, Conjugated TFK^0 [2] | Chromic Shift [2] | Relative Quantum Yield [2] | Acrylodan Emission Maxima, Conjugated TFK+ [3] | Chromic Shift [3] | Relative Quantum Yield [3] | Acrylodan Emission Maxima, Conjugated DDVP [4] | Chromic Shift [4] | Relative Quantum Yield [4] | Acrylodan Emission Maxima, Saturating Edrophonium [5] | Chromic Shift [5] | Relative Quantum Yield [5] | Acrylodan Emission Maxima, Saturating Huperzine A [6] | Chromic Shift [6] | Relative Quantum Yield [6] | Acrylodan Emission Maxima, Saturating Tacrine [7] | Chromic Shift [7] | Relative Quantum Yield [7] | Acrylodan Emission Maxima, Saturating BW284c51 [8] | Chromic Shift [8] | further results
1 | B1 | 507 nm | 30 nm | 0.59 | 512 nm | 35 nm | 0.52 | 496 nm | 19 nm | 0.39 | 510 nm | 33 nm | 0.60 | 510 nm | 33 nm | 0.55 | 510 nm | 33 nm | 0.45 | 512 nm | 35 nm | Acrylodan Emission Maxima, No Fasciculin [1]: 477 nm; Relative Quantum Yield [8]: 0.47; Acrylodan Emission Maxima, Saturating Decamethonium [9]: 505 nm; Chromic Shift [9]: 28 nm; Relative Quantum Yield [9]: 0.59; acrylodan emission maximum upon inhibitor binding [10]: 510 nm
2 | B2 | – | – | – | – | – | – | – | – | – | – | – | – | – | – | – | – | – | – | – | – | Acrylodan Emission Maxima, No Fasciculin [1]: 505 nm; acrylodan emission maximum upon inhibitor binding [10]: 509 nm
3 | B3 | 524 nm | 0 nm | 0.90 | 524 nm | 0 nm | 1.07 | 524 nm | 0 nm | 1.03 | 524 nm | 0 nm | 1.13 | 524 nm | 0 nm | 1.13 | 524 nm | 0 nm | 1.13 | 510 nm | −14 nm | Relative Quantum Yield [8]: 2.73; Acrylodan Emission Maxima, Saturating Decamethonium [9]: 517 nm; hypsochromic shift ([9]; addition of decamethonium, acrylodan conjugate): 7 nm; Chromic Shift [9]: −7 nm; Relative Quantum Yield [9]: 1.76; Acrylodan Emission Maxima, No Fasciculin [11]: 524 nm; Chromic Shift [12]: −17 nm; Relative Quantum Yield [12]: 5.0
4 | B4 | 517 nm | 0 nm | 0.97 | 517 nm | 0 nm | 0.97 | 517 nm | 0 nm | 0.97 | 517 nm | 0 nm | 0.97 | 517 nm | 0 nm | 0.97 | 517 nm | 0 nm | 0.97 | 517 nm | 0 nm | Relative Quantum Yield [8]: 0.97; Acrylodan Emission Maxima, Saturating Decamethonium [9]: 517 nm; Chromic Shift [9]: 0 nm; Relative Quantum Yield [9]: 0.97; Acrylodan Emission Maxima, No Fasciculin [11]: 517 nm; Chromic Shift [12]: 0 nm; Relative Quantum Yield [12]: 0.97
